Measurements taken from US10400009B2 (TIANJIN MEDICAL UNIVERSITY, priority 2014, dated 2019).

Assay: Fmoc solid-phase peptide synthesis; Fmoc-Asp(OtBu)-CTC Resin
Settings: whole synthesis

Sequence: HKQLPFYEED
- final HPLC purity: purity>95%

Ends that are not written are not given here.
